Literature values as cited in US9115061B2, “Naphthalene-based inhibitors of anti-apoptotic proteins” (BURNHAM INSTITUTE FOR MEDICAL RESEARCH, priority 2007, dated 2015).
At least one compound was matched to its structure with a doubt left.

Conditions: cited from earlier work

Cc1cc2c(C(C)C)c(O)c(O)c(C=O)c2c(O)c1-c1c(C)cc2c(C(C)C)c(O)c(O)c(C=O)c2c1O [(−) gossypol]
effectiveness as a cytotoxic agent versus (+) gossypol: ten times more effective
